Results are given in words; binding and its absence hold for the method and conditions named. For some assays here: Where a sequence is shown, tags or fusion partners need not be part of it.
Key:
[1] = molecular target: monomeric His6-(Grb2-SH2), P62993; assay: fluorescence polarisation; competition fluorescence anisotropy; displacement of fluorescein peptide 17 from His6-(Grb2-SH2) by unlabelled peptides; both purified; conditions: remark: other sources report otherwise
[2] = molecular target: monomeric His6-(Grb2-SH2) (UniProt P62993); assay: as above

Sequences of proteins named here, by UniProt entry; tags and fusion partners are left off. Residues count along the entry.
UniProt P62993, residues 60-152: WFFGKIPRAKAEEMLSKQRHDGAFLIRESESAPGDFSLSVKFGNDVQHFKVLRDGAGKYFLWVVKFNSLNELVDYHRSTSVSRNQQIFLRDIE

SYVNVQ (here or on the partner: N-terminal acetyl (AcHN); C-terminal amide (NH2)) [peptide 18, AcHN-Ser-Tyr-Val-Asn-Val-Gln-NH2]
binding [1]: no binding

SHVNVQ (N-terminal acetyl (AcHN); C-terminal amide (NH2)) [peptide 19, AcHN-Ser-His-Val-Asn-Val-Gln-NH2]
binding [2]: no binding
